# According to PubChem BioAssay AID493014 (National Center for Advancing Translational Sciences (NCATS), 2011):
# The other results are listed elsewhere or left out. The main result of the screen is listed elsewhere. These columns were measured beside it and carry no call. Most of these compounds were active or inconclusive in the main read-out, so they are no random draw. Potencies come from curve fits of mixed quality, noted in brackets.
# Assay: qHTS Assay to Find Inhibitors of Chronic Active B-Cell Receptor Signaling
# Conditions: ABC-DLBCL IkBa-CBG/CBR reporter, luminescence ratio (green luciferase fused to IkBa over red control in TMD8 lymphoma cells), 4 h
# Procedure, shortened: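 Concentration-response series (up to 46 uM) were applied to TMD8 dual-reporter cells for 4 h at 37C with doxycycline. Green/red ratio, after filter-overlap correction, defined %Activity; red signal alone was normalised to basal cells and zero luminescence.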
# [1] = measured here: CBR red luminescence, cell number
SMILES,AC50 [1],AC50 (measured here: IkBa-CBG green luminescence)
O=C(NCCc1ccccc1)c1ccco1,"29.1 µM [falling, single point]",
O=C(NCCOc1ccccc1Cl)C(=O)c1c[nH]c2ccccc12,"35.5 µM [falling, single point]",
CC(=O)C1=C(O)C(=O)N(CC(=O)O)C1c1ccccc1Cl (centres undefined),"16.4 µM [falling, single point]",
Cc1noc(C)c1COc1cccc(C(=O)Nc2ccc3c(c2)OCO3)c1,"7.94 µM [falling, partial curve, poor fit]",
CC1=C(CCN2CCN(C3CCCC3)C(CCO)C2)C(C)(C)CCC1 (centres undefined),"7.08 µM [rising, partial curve, poor fit]",
O=C(Nc1ccc(Oc2ccc(C(=O)O)c(C(=O)O)c2)cc1)c1cccs1,"35.5 µM [falling, single point]",
O=C(c1cc2c([nH]c1=O)CCCC2)N1CCc2c([nH]c3ccccc23)C1c1ccccc1F (centres undefined),"6.31 µM [falling, single point]",
O=C(CSc1nncc2ccccc12)Nc1cccc(C(=O)O)c1,"7.08 µM [falling, full curve]",
OCCC1CN(Cc2cccn2-c2ccccn2)CCN1Cc1ccccc1 (centres undefined),"6.31 µM [rising, single point]",
Cc1cnn(CCC(=O)NNC(=S)Nc2ccc(F)cc2)c1,"35.5 µM [rising, single point]","17.8 µM [falling, single point]"
O=C(NCc1ccc2c(c1)OCO2)c1ccc(S(=O)(=O)C(F)F)cc1,"4.47 µM [falling, partial curve, poor fit]",
Clc1ccc(/C=N/Nc2ccccn2)cc1,"0.562 µM [rising, full curve, poor fit]",
C[n+]1c2n(c3ccccc31)N=C(c1ccc(Br)cc1)CS2,"29.1 µM [rising, single point]",
O=C(Cn1cnc2ccccc2c1=O)c1ccc2c(c1)OCCO2,"0.447 µM [falling, full curve, poor fit]",
CCN(CC)CC(=O)NC1CC(C)(C)Cc2c1cnn2-c1ccc(F)cc1 (centres undefined),"2 µM [rising, partial curve, poor fit]",
O=C(Nc1ccccc1)N1CCN(c2ncccn2)CC1,"18.4 µM [falling, partial curve]",
CCOC(=O)c1cc2c(n(-c3ccccc3)c1=O)CC(C)(C)CC2=O,"29.1 µM [falling, partial curve, poor fit]",
O=C(COC(=O)c1cc([N+](=O)[O-])ccc1N1CCOCC1)Nc1ccccc1OC(F)F,"0.411 µM [rising, full curve, poor fit]",

# Some values from the list.
# In AC50 [1], `O=C(Nc1ccccc1)N1CCN(c2ncccn2)CC1` reads 18.4 µM [falling, partial curve]
# In AC50 [1], `O=C(NCCc1ccccc1)c1ccco1` reads 29.1 µM [falling, single point]
